{
  "sequences": {"note": "By UniProt entry, the sequences of proteins in these tests, tags left out. Where a name states a change or a piece, a line headed by the entry shows the natural chain unless it says otherwise. Chains listed by the source or under a name are the forms on record and can include a tag or linker.", "UniProt Q96J94": "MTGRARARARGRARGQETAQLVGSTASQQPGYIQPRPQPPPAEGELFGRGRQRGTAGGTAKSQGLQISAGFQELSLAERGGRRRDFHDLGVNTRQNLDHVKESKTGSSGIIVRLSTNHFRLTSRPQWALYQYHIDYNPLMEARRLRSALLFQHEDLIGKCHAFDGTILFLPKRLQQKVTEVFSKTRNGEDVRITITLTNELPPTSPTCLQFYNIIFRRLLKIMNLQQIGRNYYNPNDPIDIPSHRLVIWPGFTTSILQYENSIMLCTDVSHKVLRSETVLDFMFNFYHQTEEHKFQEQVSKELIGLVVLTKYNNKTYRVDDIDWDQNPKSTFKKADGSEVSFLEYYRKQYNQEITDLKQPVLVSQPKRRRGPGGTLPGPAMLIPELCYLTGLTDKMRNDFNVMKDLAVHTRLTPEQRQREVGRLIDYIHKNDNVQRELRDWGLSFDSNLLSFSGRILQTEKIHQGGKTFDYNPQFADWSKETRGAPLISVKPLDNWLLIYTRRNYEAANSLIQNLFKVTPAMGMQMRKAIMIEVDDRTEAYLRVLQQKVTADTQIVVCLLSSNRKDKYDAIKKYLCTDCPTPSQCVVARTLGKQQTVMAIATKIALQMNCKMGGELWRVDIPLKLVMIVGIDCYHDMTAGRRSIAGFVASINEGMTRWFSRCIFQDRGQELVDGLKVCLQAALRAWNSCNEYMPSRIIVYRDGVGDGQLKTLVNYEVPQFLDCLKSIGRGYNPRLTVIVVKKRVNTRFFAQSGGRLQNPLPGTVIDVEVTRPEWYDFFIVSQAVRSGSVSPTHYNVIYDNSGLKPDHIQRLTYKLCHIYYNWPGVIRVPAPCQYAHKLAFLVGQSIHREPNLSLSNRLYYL", "Flag-PIWIL1-ΔNΔC (Q96J94, form named)": "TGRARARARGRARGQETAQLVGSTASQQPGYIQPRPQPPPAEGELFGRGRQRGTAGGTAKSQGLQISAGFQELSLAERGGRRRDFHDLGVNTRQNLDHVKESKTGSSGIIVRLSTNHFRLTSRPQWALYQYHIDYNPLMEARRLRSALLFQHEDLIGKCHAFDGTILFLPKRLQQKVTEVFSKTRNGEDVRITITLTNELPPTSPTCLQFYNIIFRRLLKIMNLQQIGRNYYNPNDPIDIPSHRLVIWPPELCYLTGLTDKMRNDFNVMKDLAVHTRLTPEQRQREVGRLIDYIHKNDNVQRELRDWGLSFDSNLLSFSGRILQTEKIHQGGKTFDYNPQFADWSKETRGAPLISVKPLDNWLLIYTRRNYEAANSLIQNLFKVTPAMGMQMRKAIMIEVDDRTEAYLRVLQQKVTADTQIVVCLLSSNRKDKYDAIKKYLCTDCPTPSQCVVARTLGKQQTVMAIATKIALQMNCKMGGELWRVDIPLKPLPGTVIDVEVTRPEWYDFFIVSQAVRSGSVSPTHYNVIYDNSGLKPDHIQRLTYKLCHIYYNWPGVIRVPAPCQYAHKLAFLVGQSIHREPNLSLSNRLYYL", "Flag-piRNA-BM-PIWIL1 (Q96J94, form named)": "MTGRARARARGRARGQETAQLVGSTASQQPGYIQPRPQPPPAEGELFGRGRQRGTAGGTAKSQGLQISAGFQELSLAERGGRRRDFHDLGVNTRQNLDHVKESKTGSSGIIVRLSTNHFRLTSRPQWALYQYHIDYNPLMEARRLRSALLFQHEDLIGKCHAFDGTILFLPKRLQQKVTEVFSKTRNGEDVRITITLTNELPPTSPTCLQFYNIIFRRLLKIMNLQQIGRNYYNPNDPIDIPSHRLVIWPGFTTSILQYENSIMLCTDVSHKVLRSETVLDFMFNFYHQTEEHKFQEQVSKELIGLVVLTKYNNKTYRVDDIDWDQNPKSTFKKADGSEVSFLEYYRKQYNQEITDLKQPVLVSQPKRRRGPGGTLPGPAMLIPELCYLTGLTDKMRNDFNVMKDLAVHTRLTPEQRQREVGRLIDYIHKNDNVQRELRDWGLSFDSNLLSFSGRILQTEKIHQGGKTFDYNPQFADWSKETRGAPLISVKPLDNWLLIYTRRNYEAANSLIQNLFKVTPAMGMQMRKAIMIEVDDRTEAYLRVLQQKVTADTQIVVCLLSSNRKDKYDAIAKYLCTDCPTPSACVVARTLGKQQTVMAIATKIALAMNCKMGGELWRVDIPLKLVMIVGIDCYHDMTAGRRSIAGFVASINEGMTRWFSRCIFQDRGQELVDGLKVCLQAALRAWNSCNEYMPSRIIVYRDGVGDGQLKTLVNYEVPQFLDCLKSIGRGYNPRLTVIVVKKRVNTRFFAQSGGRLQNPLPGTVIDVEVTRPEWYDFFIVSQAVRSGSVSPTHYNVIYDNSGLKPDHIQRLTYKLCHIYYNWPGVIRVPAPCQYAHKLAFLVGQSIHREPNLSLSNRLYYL", "UniProt Q9HAU5": "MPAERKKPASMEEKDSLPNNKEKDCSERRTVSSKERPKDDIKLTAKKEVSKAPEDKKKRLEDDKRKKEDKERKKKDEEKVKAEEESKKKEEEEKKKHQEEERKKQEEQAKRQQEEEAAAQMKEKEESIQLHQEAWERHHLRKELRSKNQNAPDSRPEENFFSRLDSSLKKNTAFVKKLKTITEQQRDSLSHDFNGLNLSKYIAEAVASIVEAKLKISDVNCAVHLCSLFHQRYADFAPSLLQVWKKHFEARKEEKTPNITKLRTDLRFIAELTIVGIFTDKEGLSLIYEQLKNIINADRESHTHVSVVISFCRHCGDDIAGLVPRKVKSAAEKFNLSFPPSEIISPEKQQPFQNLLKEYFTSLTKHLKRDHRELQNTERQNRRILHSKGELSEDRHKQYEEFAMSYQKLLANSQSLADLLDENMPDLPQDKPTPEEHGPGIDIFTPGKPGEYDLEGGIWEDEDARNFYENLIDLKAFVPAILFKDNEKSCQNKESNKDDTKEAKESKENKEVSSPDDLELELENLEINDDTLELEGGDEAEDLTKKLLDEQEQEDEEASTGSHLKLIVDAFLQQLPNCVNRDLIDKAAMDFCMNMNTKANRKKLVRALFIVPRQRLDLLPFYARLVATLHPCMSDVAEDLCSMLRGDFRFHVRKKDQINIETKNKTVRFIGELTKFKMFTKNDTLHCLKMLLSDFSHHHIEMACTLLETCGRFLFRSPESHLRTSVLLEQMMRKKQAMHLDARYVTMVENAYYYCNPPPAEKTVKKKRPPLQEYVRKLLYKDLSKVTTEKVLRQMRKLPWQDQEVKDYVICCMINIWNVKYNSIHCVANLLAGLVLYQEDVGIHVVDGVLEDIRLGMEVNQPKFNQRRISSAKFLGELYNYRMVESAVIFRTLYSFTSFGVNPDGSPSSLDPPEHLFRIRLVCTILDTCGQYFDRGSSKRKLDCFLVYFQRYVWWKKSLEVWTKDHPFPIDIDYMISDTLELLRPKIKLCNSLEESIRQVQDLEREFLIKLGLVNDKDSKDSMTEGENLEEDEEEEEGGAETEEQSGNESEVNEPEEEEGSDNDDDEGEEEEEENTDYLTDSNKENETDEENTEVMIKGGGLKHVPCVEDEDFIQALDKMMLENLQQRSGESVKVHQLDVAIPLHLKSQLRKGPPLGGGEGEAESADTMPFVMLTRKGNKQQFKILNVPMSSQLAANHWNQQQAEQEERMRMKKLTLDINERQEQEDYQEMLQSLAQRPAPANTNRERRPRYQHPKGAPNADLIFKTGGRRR"},
  "source": "paper doi:10.1101/2020.05.03.075390",
  "assay_in_all_cases": "co-IP",
  "key": {"[1]": {"target": "PIWIL1 (PIWI-Like 1) (human (endogenous in SNU-1 and AGS)) (UniProt Q96J94)"}, "[2]": {"target": "T1, UPF1 (Up-Frameshift-1) (human (endogenous in SNU-1)) (UniProt Q92900)", "T1 sequence": "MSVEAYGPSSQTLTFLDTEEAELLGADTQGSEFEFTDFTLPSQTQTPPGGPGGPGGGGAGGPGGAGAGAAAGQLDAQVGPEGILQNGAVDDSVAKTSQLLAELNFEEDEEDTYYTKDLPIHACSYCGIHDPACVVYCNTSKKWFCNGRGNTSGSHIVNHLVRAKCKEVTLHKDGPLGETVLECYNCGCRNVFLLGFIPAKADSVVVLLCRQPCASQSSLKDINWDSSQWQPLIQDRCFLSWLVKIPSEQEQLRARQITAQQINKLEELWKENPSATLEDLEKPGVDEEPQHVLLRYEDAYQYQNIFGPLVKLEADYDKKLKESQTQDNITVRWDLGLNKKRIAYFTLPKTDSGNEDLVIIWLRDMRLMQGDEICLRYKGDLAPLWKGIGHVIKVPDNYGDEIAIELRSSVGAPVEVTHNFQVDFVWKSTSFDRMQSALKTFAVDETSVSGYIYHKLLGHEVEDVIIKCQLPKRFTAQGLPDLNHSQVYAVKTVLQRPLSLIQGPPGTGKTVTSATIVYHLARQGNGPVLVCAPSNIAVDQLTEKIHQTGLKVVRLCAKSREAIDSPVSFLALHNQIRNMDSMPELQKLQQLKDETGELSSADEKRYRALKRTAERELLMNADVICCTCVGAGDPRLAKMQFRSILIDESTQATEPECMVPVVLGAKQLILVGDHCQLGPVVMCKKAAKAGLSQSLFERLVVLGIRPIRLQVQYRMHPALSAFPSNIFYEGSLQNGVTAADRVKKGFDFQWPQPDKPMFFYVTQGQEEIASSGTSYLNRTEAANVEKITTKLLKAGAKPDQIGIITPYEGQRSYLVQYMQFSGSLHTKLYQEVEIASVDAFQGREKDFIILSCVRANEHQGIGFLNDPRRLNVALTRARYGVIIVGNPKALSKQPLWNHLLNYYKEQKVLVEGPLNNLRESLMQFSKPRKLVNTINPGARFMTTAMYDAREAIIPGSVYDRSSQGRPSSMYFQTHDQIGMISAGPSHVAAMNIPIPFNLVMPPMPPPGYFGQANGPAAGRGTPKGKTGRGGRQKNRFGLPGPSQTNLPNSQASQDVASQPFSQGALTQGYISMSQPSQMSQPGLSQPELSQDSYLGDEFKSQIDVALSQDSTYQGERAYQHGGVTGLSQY"}, "[3]": {"target": "UPF2 (human (endogenous in SNU-1)) (UniProt Q9HAU5)"}, "[4]": {"target": "T2, phosphorylated UPF1 (human (endogenous in SNU-1)) (UniProt Q92900)", "T2 sequence (chain, phosphorylated; recognised by an anti-phospho-Upf1 (Ser1127) antibody)": "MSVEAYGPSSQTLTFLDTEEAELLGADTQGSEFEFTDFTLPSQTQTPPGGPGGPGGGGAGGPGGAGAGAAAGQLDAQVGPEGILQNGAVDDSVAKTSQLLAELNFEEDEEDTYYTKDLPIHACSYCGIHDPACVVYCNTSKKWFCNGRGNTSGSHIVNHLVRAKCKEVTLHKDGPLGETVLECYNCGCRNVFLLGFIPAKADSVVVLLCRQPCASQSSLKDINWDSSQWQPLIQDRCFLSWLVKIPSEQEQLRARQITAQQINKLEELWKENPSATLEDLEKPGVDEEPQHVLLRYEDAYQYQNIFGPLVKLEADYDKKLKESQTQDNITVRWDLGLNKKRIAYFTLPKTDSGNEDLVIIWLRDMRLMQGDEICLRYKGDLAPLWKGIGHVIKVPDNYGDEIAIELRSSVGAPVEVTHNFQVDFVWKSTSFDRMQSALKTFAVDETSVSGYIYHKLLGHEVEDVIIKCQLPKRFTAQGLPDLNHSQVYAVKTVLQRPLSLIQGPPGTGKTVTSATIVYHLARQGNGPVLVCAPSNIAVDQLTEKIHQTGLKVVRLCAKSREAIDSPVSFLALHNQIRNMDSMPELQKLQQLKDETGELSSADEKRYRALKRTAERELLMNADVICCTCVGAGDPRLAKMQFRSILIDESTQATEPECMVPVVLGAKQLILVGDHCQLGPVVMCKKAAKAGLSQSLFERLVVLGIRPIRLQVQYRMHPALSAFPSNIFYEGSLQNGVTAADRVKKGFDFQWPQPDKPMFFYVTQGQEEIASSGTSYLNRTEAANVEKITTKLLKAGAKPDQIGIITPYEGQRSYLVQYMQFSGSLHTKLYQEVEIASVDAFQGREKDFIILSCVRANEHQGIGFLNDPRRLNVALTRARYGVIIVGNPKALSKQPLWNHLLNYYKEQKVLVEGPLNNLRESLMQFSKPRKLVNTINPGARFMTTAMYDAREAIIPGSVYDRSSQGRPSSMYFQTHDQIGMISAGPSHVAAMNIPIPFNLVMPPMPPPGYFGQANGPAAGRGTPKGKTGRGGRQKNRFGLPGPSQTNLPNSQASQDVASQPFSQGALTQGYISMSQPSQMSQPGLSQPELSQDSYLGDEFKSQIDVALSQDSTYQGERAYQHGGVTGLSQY"}, "Flag-PIWIL1-FL (human)": {"target": "Flag-PIWIL1-FL (human) (UniProt Q96J94)"}, "Flag-PIWIL1-ΔNΔC (human)": {"target": "Flag-PIWIL1-ΔNΔC (human) (UniProt Q96J94)"}, "[5]": {"target": "Flag-piRNA-BM-PIWIL1 (human) (UniProt Q96J94)"}, "[6]": {"target": "PIWIL1 (PIWI-Like 1) (human (endogenous in SNU-1 and AGS)) (UniProt Q96J94)", "remark": "listed apart in the source"}},
  "note": "Like-named read-outs stand apart in the source and are kept apart here. Results are given in words; binding and its absence hold for the method and conditions named. In cells and extracts the contact can be indirect. Some entries that bind do so weakly or less than the wild type.",
  "data": [
    {"molecule": "SMG1 (from UniProt Q96Q15 1-3661)", "values": [
      {"measurement": "binding", "setting": "[1]", "value": "binds"}
    ]},
    {"molecule": "UPF2 (from UniProt Q9HAU5 1-1272)", "values": [
      {"measurement": "binding", "setting": "[1]", "value": "binds"}
    ]},
    {"molecule": "PIWIL1 (PIWI-Like 1) (from UniProt Q96J94 1-861)", "values": [
      {"measurement": "binding", "setting": "[2]", "value": "binds"},
      {"measurement": "binding", "setting": "[3]", "value": "binds"},
      {"measurement": "binding", "setting": "[4]", "value": "binds"}
    ]},
    {"molecule": "UPF1 (Up-Frameshift-1) (protein, UniProt Q92900 1-1129) MSVEAYGPSSQTLTFLDTEEAELLGADTQGSEFEFTDFTLPSQTQTPPGGPGGPGGGGAGGPGGAGAGAAAGQLDAQVGPEGILQNGAVDDSVAKTSQLLAELNFEEDEEDTYYTKDLPIHACSYCGIHDPACVVYCNTSKKWFCNGRGNTSGSHIVNHLVRAKCKEVTLHKDGPLGETVLECYNCGCRNVFLLGFIPAKADSVVVLLCRQPCASQSSLKDINWDSSQWQPLIQDRCFLSWLVKIPSEQEQLRARQITAQQINKLEELWKENPSATLEDLEKPGVDEEPQHVLLRYEDAYQYQNIFGPLVKLEADYDKKLKESQTQDNITVRWDLGLNKKRIAYFTLPKTDSGNEDLVIIWLRDMRLMQGDEICLRYKGDLAPLWKGIGHVIKVPDNYGDEIAIELRSSVGAPVEVTHNFQVDFVWKSTSFDRMQSALKTFAVDETSVSGYIYHKLLGHEVEDVIIKCQLPKRFTAQGLPDLNHSQVYAVKTVLQRPLSLIQGPPGTGKTVTSATIVYHLARQGNGPVLVCAPSNIAVDQLTEKIHQTGLKVVRLCAKSREAIDSPVSFLALHNQIRNMDSMPELQKLQQLKDETGELSSADEKRYRALKRTAERELLMNADVICCTCVGAGDPRLAKMQFRSILIDESTQATEPECMVPVVLGAKQLILVGDHCQLGPVVMCKKAAKAGLSQSLFERLVVLGIRPIRLQVQYRMHPALSAFPSNIFYEGSLQNGVTAADRVKKGFDFQWPQPDKPMFFYVTQGQEEIASSGTSYLNRTEAANVEKITTKLLKAGAKPDQIGIITPYEGQRSYLVQYMQFSGSLHTKLYQEVEIASVDAFQGREKDFIILSCVRANEHQGIGFLNDPRRLNVALTRARYGVIIVGNPKALSKQPLWNHLLNYYKEQKVLVEGPLNNLRESLMQFSKPRKLVNTINPGARFMTTAMYDAREAIIPGSVYDRSSQGRPSSMYFQTHDQIGMISAGPSHVAAMNIPIPFNLVMPPMPPPGYFGQANGPAAGRGTPKGKTGRGGRQKNRFGLPGPSQTNLPNSQASQDVASQPFSQGALTQGYISMSQPSQMSQPGLSQPELSQDSYLGDEFKSQIDVALSQDSTYQGERAYQHGGVTGLSQY", "values": [
      {"measurement": "binding", "setting": "Flag-PIWIL1-FL (human)", "value": "binds"},
      {"measurement": "binding", "setting": "Flag-PIWIL1-ΔNΔC (human)", "value": "no binding"},
      {"measurement": "binding", "setting": "[5]", "value": "binds"},
      {"measurement": "binding", "setting": "[6]", "value": "binds"}
    ]},
    {"molecule": "phosphorylated UPF1 (protein, UniProt Q92900 1-1129, phosphorylated; recognised by an anti-phospho-Upf1 (Ser1127) antibody) MSVEAYGPSSQTLTFLDTEEAELLGADTQGSEFEFTDFTLPSQTQTPPGGPGGPGGGGAGGPGGAGAGAAAGQLDAQVGPEGILQNGAVDDSVAKTSQLLAELNFEEDEEDTYYTKDLPIHACSYCGIHDPACVVYCNTSKKWFCNGRGNTSGSHIVNHLVRAKCKEVTLHKDGPLGETVLECYNCGCRNVFLLGFIPAKADSVVVLLCRQPCASQSSLKDINWDSSQWQPLIQDRCFLSWLVKIPSEQEQLRARQITAQQINKLEELWKENPSATLEDLEKPGVDEEPQHVLLRYEDAYQYQNIFGPLVKLEADYDKKLKESQTQDNITVRWDLGLNKKRIAYFTLPKTDSGNEDLVIIWLRDMRLMQGDEICLRYKGDLAPLWKGIGHVIKVPDNYGDEIAIELRSSVGAPVEVTHNFQVDFVWKSTSFDRMQSALKTFAVDETSVSGYIYHKLLGHEVEDVIIKCQLPKRFTAQGLPDLNHSQVYAVKTVLQRPLSLIQGPPGTGKTVTSATIVYHLARQGNGPVLVCAPSNIAVDQLTEKIHQTGLKVVRLCAKSREAIDSPVSFLALHNQIRNMDSMPELQKLQQLKDETGELSSADEKRYRALKRTAERELLMNADVICCTCVGAGDPRLAKMQFRSILIDESTQATEPECMVPVVLGAKQLILVGDHCQLGPVVMCKKAAKAGLSQSLFERLVVLGIRPIRLQVQYRMHPALSAFPSNIFYEGSLQNGVTAADRVKKGFDFQWPQPDKPMFFYVTQGQEEIASSGTSYLNRTEAANVEKITTKLLKAGAKPDQIGIITPYEGQRSYLVQYMQFSGSLHTKLYQEVEIASVDAFQGREKDFIILSCVRANEHQGIGFLNDPRRLNVALTRARYGVIIVGNPKALSKQPLWNHLLNYYKEQKVLVEGPLNNLRESLMQFSKPRKLVNTINPGARFMTTAMYDAREAIIPGSVYDRSSQGRPSSMYFQTHDQIGMISAGPSHVAAMNIPIPFNLVMPPMPPPGYFGQANGPAAGRGTPKGKTGRGGRQKNRFGLPGPSQTNLPNSQASQDVASQPFSQGALTQGYISMSQPSQMSQPGLSQPELSQDSYLGDEFKSQIDVALSQDSTYQGERAYQHGGVTGLSQY", "values": [
      {"measurement": "binding", "setting": "[6]", "value": "binds"}
    ]}
  ]
}
